Reference: PMC9675789
No constants are given. Whether binding was seen depends on the method and setting. In cells and extracts the contact can be indirect. Some binding calls cover weakened binding; strength is not graded here.

By UniProt entry, the sequences of proteins in these tests, tags left out. Residues count along the entry.
UniProt P54762, residues 18-984: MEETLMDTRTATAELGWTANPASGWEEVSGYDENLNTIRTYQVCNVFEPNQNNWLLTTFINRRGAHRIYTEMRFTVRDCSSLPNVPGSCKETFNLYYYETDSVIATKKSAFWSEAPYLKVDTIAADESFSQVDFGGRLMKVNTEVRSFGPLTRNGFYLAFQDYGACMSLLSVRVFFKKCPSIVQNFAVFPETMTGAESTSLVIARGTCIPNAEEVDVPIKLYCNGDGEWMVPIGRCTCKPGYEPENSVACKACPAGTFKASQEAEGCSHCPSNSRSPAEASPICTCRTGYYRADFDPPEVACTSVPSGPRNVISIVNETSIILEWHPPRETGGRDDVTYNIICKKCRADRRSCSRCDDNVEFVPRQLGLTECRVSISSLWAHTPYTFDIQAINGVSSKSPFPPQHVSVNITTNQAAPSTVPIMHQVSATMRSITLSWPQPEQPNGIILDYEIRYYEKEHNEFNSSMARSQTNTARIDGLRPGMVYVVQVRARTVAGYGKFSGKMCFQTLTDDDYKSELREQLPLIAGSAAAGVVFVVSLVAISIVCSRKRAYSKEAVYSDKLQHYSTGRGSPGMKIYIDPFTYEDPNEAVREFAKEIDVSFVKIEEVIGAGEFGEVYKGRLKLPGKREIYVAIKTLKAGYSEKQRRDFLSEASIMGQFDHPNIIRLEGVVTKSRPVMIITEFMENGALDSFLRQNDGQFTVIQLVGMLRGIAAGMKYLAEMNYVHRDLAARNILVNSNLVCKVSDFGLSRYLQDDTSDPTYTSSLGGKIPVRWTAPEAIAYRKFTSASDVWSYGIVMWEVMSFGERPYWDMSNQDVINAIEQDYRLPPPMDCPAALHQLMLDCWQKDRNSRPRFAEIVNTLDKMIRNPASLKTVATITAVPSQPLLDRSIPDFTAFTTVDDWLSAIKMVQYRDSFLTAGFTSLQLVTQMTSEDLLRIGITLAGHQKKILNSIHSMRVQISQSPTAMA
UniProt P52799, residues 28-333: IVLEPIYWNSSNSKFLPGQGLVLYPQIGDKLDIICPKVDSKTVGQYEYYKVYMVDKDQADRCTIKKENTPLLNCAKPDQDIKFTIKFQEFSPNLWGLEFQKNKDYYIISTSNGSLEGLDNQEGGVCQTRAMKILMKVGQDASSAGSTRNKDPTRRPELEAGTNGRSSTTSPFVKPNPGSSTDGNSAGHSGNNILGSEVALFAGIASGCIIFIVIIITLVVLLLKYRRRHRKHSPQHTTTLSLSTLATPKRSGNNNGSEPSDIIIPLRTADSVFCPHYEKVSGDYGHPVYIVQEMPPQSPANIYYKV

Molecular target: EphB1 wt/EGFP (full-length EphB1 in frame with GFP) (UniProt P54762)
Test: co-IP; anti-GFP antibody and agarose beads on lysate of A549 cells transfected with EphB1 wt/EGFP or EphB1 mutants/EGFP; IP buffer 20 mM Tris pH 7.5, 150 mM NaCl, 1% Nonidet P-40, 0.1% sodium deoxycholate; 4 °C overnight; western blot for EfnB2, p38 and p-p38; GFP null vector as negative control

binding: binds
Substance: EfnB2 (EphrinB2) (from UniProt P52799 28-333) (ligand)
